Reference: PMC11705415
These are yes or no findings as the source states them, for the method shown. Binding seen in cells or lysates may run through a third protein. Here binding means that the protein was enriched with, or labelled near, the bait; the list need not be complete.

Sequences of proteins named here, by UniProt entry; tags and fusion partners are left off. A change or cut given only in a name is not applied to a line headed by its entry.
UniProt P62069: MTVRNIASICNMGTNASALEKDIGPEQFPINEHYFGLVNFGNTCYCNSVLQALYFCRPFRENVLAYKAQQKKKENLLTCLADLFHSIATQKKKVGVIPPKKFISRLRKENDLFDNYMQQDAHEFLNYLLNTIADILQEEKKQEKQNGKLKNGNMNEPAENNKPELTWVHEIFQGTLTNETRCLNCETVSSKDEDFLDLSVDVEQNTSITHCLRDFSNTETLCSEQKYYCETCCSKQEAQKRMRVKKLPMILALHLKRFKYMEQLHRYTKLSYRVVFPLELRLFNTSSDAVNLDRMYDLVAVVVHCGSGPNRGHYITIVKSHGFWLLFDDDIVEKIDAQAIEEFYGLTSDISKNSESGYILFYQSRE

Target: USP46-WT-BirA(R118G)-HA fusion protein (mouse) (UniProt P62069)
Assay: proximity labelling; BioID: knock-in Neuro2a cells stably expressing USP46 (WT or ΔK92)-BirA(R118G)-HA, 50 μM biotin for 24 h; lysis in TNE buffer with 0.1% Triton X-100; streptavidin Mag Sepharose pull-down, SDS-PAGE, LC-MS/MS; proteins of the CRAPome list and of intact Neuro2a cells excluded

binding | Binder
binds | gephyrin (protein, UniProt Q8BUV3 1-769, biotin (proximity-dependent biotinylation, sites not stated)) MATEGMILTNHDHQIRVGVLTVSDSCFRNLAEDRSGINLKDLVQDPSLLGGTISAYKIVPDEIEEIKETLIDWCDEKELNLILTTGGTGFAPRDVTPEATKEVIEREAPGMALAMLMGSLNVTPLGMLSRPVCGIRGKTLIINLPGSKKGSQECFQFILPALPHAIDLLRDAIVKVKEVHDELEDLPSPPPPLSPPPTTSPHKQTEDKGVQCEEEEEEKKDSGVASTEDSSSSHITAAALAAKIPDSIISRGVQVLPRDTASLSTTPSESPRAQATSRLSTASCPTPKQIRRPDESKGVASRVGSLKARLPSCSSTYSVSEVQSRCSSKENILRASHSAVDITKVARRHRMSPFPLTSMDKAFITVLEMTPVLGTEIINYRDGMGRVLAQDVYAKDNLPPFPASVKDGYAVRAADGPGDRFIIGESQAGEQPTQTVMPGQVMRVTTGAPIPCGADAVVQVEDTELIRESDDGTEELEVRILVQARPGQDIRPIGHDIKRGECVLAKGTHMGPSEIGLLATVGVTEVEVNKFPVVAVMSTGNELLNPEDDLLPGKIRDSNRSTLLATIQEHGYPTINLGIVGDNPDDLLNALNEGISRADVIITSGGVSMGEKDYLKQVLDIDLHAQIHFGRVFMKPGLPTTFATLDIDGVRKIIFALPGNPVSAVVTCNLFVVPALRKMQGILDPRPTIIKARLSCDVKLDPRPEYHRCILTWHHQEPLPWAQSTGNQMSSRLMSMRSANGLLMLPPKTEQYVELHKGEVVDVMVIGRL
binds | STRN4 (protein, UniProt P58404 1-760, biotin (proximity-dependent biotinylation, sites not stated)) MMEERAAAAVASAASSCRPLGSGTAPNPTAAAPASSPAPGPGPVGKGGGGGGSPGPTAGPEPLSLPGILHFIQHEWARFEAEKARWEAERAELQAQVAFLQGERKGQENLKTDLVRRIKMLEYALKQERAKYHKLKFGTDLNQGEKKTDLSEQVSNGPVESVTLENSPLVWKEGRQLLRQYLEEVGYTDTILDMRSKRVRSLLGRSLELNGAGEPVEGAPRASPGPGGLSGGESLLVKQIEEQIKRNAAGKDGKERLGGSVLEQIPFLQNCEDEDSDEDDELDSVQHKKQRVRLPSKALVPEMEDEDEEDDSEDAINEFDFLGSGEDGEGSPDPRRCTSEGNPHELESRRVKLQGILADLRDVDGLPPKVTVPPPGTPQPRPHEGSFGFSSDVFIMDTIGGGEVSLGDLADLTVTNDNDLSCDLSDSKDAFKKTWNPKFTLRSHYDGIRSLAFHHSQSALLTASEDGTLKLWNLQKAVTAKKNAALDVEPIHAFRAHRGPVLAVTMGSNSEYCYSGGADARIHSWKIPDLNMDPYDGYDPSVLSHVLEGHGDAVWGLAFSPTSQRLASCSADGTVRIWDPSSSGPSCLCTFPMDGEHGIPTSVAFTSTEPAHVVASFRSGDTVLYDLEAGSALLTLESRGSSGPAQINQVVSHPSQPLTITAHDDRGIRFLDNRTGKSVHSMVAHLDAVTCLAVDPNGVFLMSGSHDCSLRLWSLDNKTCVQEITAHRKKHEEAIHAVACHPSKALIASAGADALAKVFV
binds | VPS50 (protein, UniProt Q8CI71 1-964, biotin (proximity-dependent biotinylation, sites not stated)) MQKIKSLMTRQGLKSPPESLNDLGAFESLRVPGKEEFRELREQPSDPQAEQELINSIEQVYFSADPFDIVKYELEKLPPVLNLQELEEYRDKLKQQQSAVSKKVADLILEKQPAYVKELERVTSLQTGLQLAAVICTNGRRHLNIAKEGFTQASLGLLANQRKRQLLIGLLKSLRTIKTLQRTDIRLSEMLEEEDYPGAIQLCLECQKAASTFKHYSCISELNSKLQDTLEQIEEQLDVALSKICKNFDINHYTKVQQAYRLLGKTQTAMDQLHMHFTQAIHNTVFQVVLGYVELCAGNTDTKFQKLQYKDLCTHVTPDSYIPCLADLCKALWEVMLSYYRTMEWHEKHDNEETAAAAEGSNVMSTEEATFDRGYVKKKLEHGLTRIWQDVQLKVKTYLLGTDLSIFKYDDFIFVLDIVSRLMQVGEEFCGSKSEVLQESIRKQSVNYFKNHHRIRLDELRMFLENETWELCPVKSNFSILQLHEFKFLEQSRSPSVSPSKQPSATSSKPVTLFEQYCSGGNPFEIQADHKDEETEDVLASNGYESDEQEKSAYQDYDSDSDVPEELKRDYVDEQTGDVPVKSVSRETLKSRKKSDYSLNKVNAPILTNTTLNVIRLVGKYMQMMNILKPIAFDVIHFMSQLFDYYLYAIYTFFGRNDSLESTGLGLSSSRLKTTLNRIQESLIDLEGSADPTATLTAAEERKEKVPSPHLNQLVILTSGDTLYGLAERVVATESLVFLAEQFEFLQPHLDAVMPAVKKPFLQQFYSQTVSTASELRKPIYWIVAGKAIDYEQMLLLMMNVKWDVKEIMSQHNIYVDALLKEFEQFNKRLNEVSKRVRIPLPVSNILWEHCIRLANRTIVEGYANVKKCSNEGRALMQLDFQQFLMKLEKLTDIRPIPDKEFVETYIKAYYLTENDMERWIKEHREYSTKQLTNLVNVCLGSHINKKARQKLLAAIDEIDRPKR
